Measured values: paper PMC7819943, “Rice protein-binding microarrays: a tool to detect cis-acting elements near promoter regions in rice”
The list shows a part of the results.

What follows are sequences tested against T1, OsSMF1 (Oryza sativa, UniProt Q6ZLB0 1-436) (assay: protein-binding microarray (RPBM); PBS, 2% BSA, 51.3 ng/ul salmon testes DNA, 50 uM zinc acetate, 200 nM TF, 25 C, 1 h; high values mean tight binding). Conditions: protein: recombinant; tags: N-terminal polyhistidine and DsRed monomer fusion (pET32a); chain copies: 2; label: CyDye5-dUTP incorporated in the synthesized complementary strand; 3' TTTTT single-stranded linker to array surface; dsDNA, one strand shown.
T1 sequence: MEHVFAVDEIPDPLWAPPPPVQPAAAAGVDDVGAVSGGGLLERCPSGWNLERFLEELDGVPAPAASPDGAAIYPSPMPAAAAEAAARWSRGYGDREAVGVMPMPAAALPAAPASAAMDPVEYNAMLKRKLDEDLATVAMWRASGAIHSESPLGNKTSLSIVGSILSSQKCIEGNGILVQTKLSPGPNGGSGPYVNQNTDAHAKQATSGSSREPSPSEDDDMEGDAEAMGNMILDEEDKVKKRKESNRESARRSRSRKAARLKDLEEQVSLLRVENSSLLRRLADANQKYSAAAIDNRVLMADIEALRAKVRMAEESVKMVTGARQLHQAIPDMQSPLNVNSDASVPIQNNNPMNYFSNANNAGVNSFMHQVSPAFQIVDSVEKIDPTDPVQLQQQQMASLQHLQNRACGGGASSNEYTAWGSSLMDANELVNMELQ
In short: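 Ni–NTA purification followed expression in E. coli BL21-CodonPlus of transcription factors fused N-terminally to a polyhistidine tag and DsRed. At 200 nM in PBS with 2% BSA, salmon testes DNA and 50 µM zinc acetate, the protein was incubated for 1 h at 25 °C with a custom Agilent array that had been primer-extended with Cy5-dUTP and blocked with 2% BSA. After washing, the array was read on an Axon 4000B scanner. The binding signal is per-feature fluorescence intensity in arbitrary units.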

Sequence | binding signal
CCAATGCCGCGGTGACACGGCGGACAGTCGGACGTACAGTCGGAGTCACCTAGTGCAG | 3150 fluorescence intensity (a.u.)
CGGTGATCCCATACTTGGCACGTACACGTGCCCTCTTGATCGGAGTCACCTAGTGCAG | 6030 fluorescence intensity (a.u.)
TTCGCGCGCCACCTCCTCGCGCTCGCCTGCTTCTTCTCCCCGGAGTCACCTAGTGCAG | 3380 fluorescence intensity (a.u.)
CCCTGCGCCGGCTGCCACACCCCACTCCGGCGACCCCTCTCGGAGTCACCTAGTGCAG | 3360 fluorescence intensity (a.u.)
CCACTTCCCACCCGTAGCGCCTCCCCGCGAACCCACTCCCCGGAGTCACCTAGTGCAG | 22200 fluorescence intensity (a.u.)
TTTGTTGTTAAAGGCTTTTGGTAACCTATATGTCAGCAATCGGAGTCACCTAGTGCAG | 4280 fluorescence intensity (a.u.)
GCAGGGGCGGGCCCACAATGATTCATGGGTATTCAAATGACGGAGTCACCTAGTGCAG | 34100 fluorescence intensity (a.u.)
TTGCATCAGGATCACTCTCGTCTTCTTCGCTGTTGTTTTGCGGAGTCACCTAGTGCAG | 4140 fluorescence intensity (a.u.)
TTCTCCGAGATTTGGAGGCCAAACAGAGGGTTGGAGATTGCGGAGTCACCTAGTGCAG | 3320 fluorescence intensity (a.u.)
ACTTGTATTAATTCTTTTACGTGTTTAATTATATCGACTTCGGAGTCACCTAGTGCAG | 3560 fluorescence intensity (a.u.)
CTGAGCTGCCACCTCCGCCGCCGCCAGCATGATGGCCTTGCGGAGTCACCTAGTGCAG | 42500 fluorescence intensity (a.u.)
TTTCAACGATGCTCATGTACACGGTGGCGTATGTGAGTGTCGGAGTCACCTAGTGCAG | 3690 fluorescence intensity (a.u.)
GTTCAGCTATCAAAGTCCCTGAATAGTTTAGATTTACATTCGGAGTCACCTAGTGCAG | 14100 fluorescence intensity (a.u.)
CCAGCTCGGTTATACACACTCTAGCCAACCATGCATGGAGCGGAGTCACCTAGTGCAG | 5070 fluorescence intensity (a.u.)
AAAAGTAATTTATAAATAAAATTTCTATATACGTGTTCTTCGGAGTCACCTAGTGCAG | 3220 fluorescence intensity (a.u.)
TTCTTAGGCTATGAGTAGGATTAAGGATCGCAGCCCTTTCCGGAGTCACCTAGTGCAG | 3270 fluorescence intensity (a.u.)
TTTTCTCGACGTGCGCACGCACGTACACAGACCGAATCGGCGGAGTCACCTAGTGCAG | 3770 fluorescence intensity (a.u.)
ACCGTGGCGAGGATGGTGACAACATATTTCCAATTCTGTGCGGAGTCACCTAGTGCAG | 5730 fluorescence intensity (a.u.)
GCTAAACACGACGCTTCCATGGACGCGGGTGACGCGGCTTCGGAGTCACCTAGTGCAG | 7270 fluorescence intensity (a.u.)
GCTGCATCAGCTGCTGCTACTTCTACTCCTACTGCTGCTGCGGAGTCACCTAGTGCAG | 30900 fluorescence intensity (a.u.)
CATTTCACAAATGACATCACTGGAGCGCCAAGGTCTAATCCGGAGTCACCTAGTGCAG | 4190 fluorescence intensity (a.u.)
GAATGCCAAAACATATATTGTGCGAAATGGATCATGTCAACGGAGTCACCTAGTGCAG | 3250 fluorescence intensity (a.u.)
TGACACATGGGGTCTACGGTATTTTCTGACTAAGTACCACCGGAGTCACCTAGTGCAG | 3320 fluorescence intensity (a.u.)
AGATGCTCTGTCACTTCTATTGGTGACTTGGTGTTGGATGCGGAGTCACCTAGTGCAG | 6620 fluorescence intensity (a.u.)
GGCCGGCGGGCGGATGGCGTCGTCGAGGGTGATGGCGGCGCGGAGTCACCTAGTGCAG | 3890 fluorescence intensity (a.u.)
TAAATGCTCGGGCTAAAACAAGGATGGAACACGTCAGCGGCGGAGTCACCTAGTGCAG | 20900 fluorescence intensity (a.u.)
AGCGGTTTCGCTGACGTGGCGGTTAGGTGGCATTTGAATTCGGAGTCACCTAGTGCAG | 23800 fluorescence intensity (a.u.)

Copied from the list.
Entry for GCAGGGGCGGGCCCACAATGATTCATGGGTATTCAAATGACGGAGTCACCTAGTGCAG under binding signal: 34100 fluorescence intensity (a.u.)
Entry for TTTGTTGTTAAAGGCTTTTGGTAACCTATATGTCAGCAATCGGAGTCACCTAGTGCAG under binding signal: 4280 fluorescence intensity (a.u.)

Following part

Sequence | binding signal
TTTTAACAACAGTGAGTGAGTGTGACGCACTGACGCTGCACGGAGTCACCTAGTGCAG | 3720 fluorescence intensity (a.u.)
GATGGTTTCTCCGGTAGTGACGCTATCAAGTGGCTGCCCCCGGAGTCACCTAGTGCAG | 3320 fluorescence intensity (a.u.)
GAGTAAACCAATCTATTCGAATAGCCGTACTCACATTTAACGGAGTCACCTAGTGCAG | 38500 fluorescence intensity (a.u.)
CCTATGAACTATGGCTTATGTACATTAACAGCAGGTTGCGCGGAGTCACCTAGTGCAG | 6750 fluorescence intensity (a.u.)
GTGCCTCCGTAGCAATGCCACGTCAGCATATGGAGCGGGTCGGAGTCACCTAGTGCAG | 44600 fluorescence intensity (a.u.)
CATTTGAGAGATTTTGTTTACTATTTTGGCATTGCTCTCACGGAGTCACCTAGTGCAG | 11100 fluorescence intensity (a.u.)
TCTCGAACGTTCTATTTTAATTTCCCTGACACGTTCGTCTCGGAGTCACCTAGTGCAG | 4630 fluorescence intensity (a.u.)
CGCGCGTGCTCTCCTCTCCTCTCCTCTCGACTCTCGTGGTCGGAGTCACCTAGTGCAG | 4020 fluorescence intensity (a.u.)
ATTCTTGCTACCTATAATTGCAACATGACAGAGTGTTAAGCGGAGTCACCTAGTGCAG | 3480 fluorescence intensity (a.u.)
AAGCCTAATTAATCCGTCATTAACAAATATTTACTGTAGCCGGAGTCACCTAGTGCAG | 3330 fluorescence intensity (a.u.)
GTGGTAATGCATGCATGAAGAAAGAATGATGAGTTGGAAGCGGAGTCACCTAGTGCAG | 3260 fluorescence intensity (a.u.)
AGAGCAATTAAACGTCATAGGTATGTTTAGGTCACTTGGTCGGAGTCACCTAGTGCAG | 3320 fluorescence intensity (a.u.)
CTGCGCTGGATCCGAGTCAGCCTCGCGTCGCTGTCACACTCGGAGTCACCTAGTGCAG | 9550 fluorescence intensity (a.u.)
TATTTTACTAGCTTTCCCCAACTCATCTCATCTCTGATCTCGGAGTCACCTAGTGCAG | 3350 fluorescence intensity (a.u.)
ATCTTTAGTCCCGGATTGGTAGTTCCGGTTTGAAAACCGGCGGAGTCACCTAGTGCAG | 3760 fluorescence intensity (a.u.)
TCCATATGGCATTGCCACATCAGCGCCACATAGGATCGCACGGAGTCACCTAGTGCAG | 32000 fluorescence intensity (a.u.)
GGCCCCACATGTCATCTCCTCCCTTTCTTCTTCCTCCCCTCGGAGTCACCTAGTGCAG | 4040 fluorescence intensity (a.u.)
GCTAATCGGCGGCGCGTGACGTTAGCTCACCTGAAGCGGTCGGAGTCACCTAGTGCAG | 6370 fluorescence intensity (a.u.)
GAACCCCGGACAAAATTGGGGCAGCACCGCGTGACACATTCGGAGTCACCTAGTGCAG | 3540 fluorescence intensity (a.u.)
CCCGCCACCGCGCAGCCGCCCGACGCCGTCGCCGCTCGTCCGGAGTCACCTAGTGCAG | 16400 fluorescence intensity (a.u.)
GAGAGCCTGAGAAAAGGCGTGTTGCTGATGCGGGTTTTCCCGGAGTCACCTAGTGCAG | 3420 fluorescence intensity (a.u.)
GCACCACCACCGCGTCAGTATACAAACGGCGGCGACCAACCGGAGTCACCTAGTGCAG | 3860 fluorescence intensity (a.u.)
TTTGAAGGGAATTACAGATGTGCTTGGCTCAAAATGCAGACGGAGTCACCTAGTGCAG | 3380 fluorescence intensity (a.u.)
TTCTCCCCTTTCATCTCCACGCGCCCACCGCTTCCCGCTCCGGAGTCACCTAGTGCAG | 3210 fluorescence intensity (a.u.)
ATGTACTTGTGATTCGTGGATTGGTGGACATGACAGGTAACGGAGTCACCTAGTGCAG | 3200 fluorescence intensity (a.u.)
AGTTTTATCCTACGTGGCTGCTGAGTCAGCGTGGGACCCACGGAGTCACCTAGTGCAG | 38600 fluorescence intensity (a.u.)
ACCACAATGGCATACGTGTCATGCAACCAAATAGGGAGCACGGAGTCACCTAGTGCAG | 5620 fluorescence intensity (a.u.)
